Measured values published in PubChem BioAssay AID1671190 (National Center for Advancing Translational Sciences (NCATS), 2021).
Out of some 580,000 compounds screened, about 6,100 (1.1%) were called active. Inconclusive results, whose numbers are uncertain, are shown with a selection of clear calls. The call rests on the fitted dose curve; in most records, active means well fitted inhibition curve with a large enough effect; inconclusive means small, poorly fitted or top-dose-only effect, or another doubt; inactive means no such curve, though single readings can be large or run the other way. Where the call is inconclusive, the potency comes from a doubtful curve fit.

Amino acid sequences for entries named in this document (tags omitted).
UniProt P18054, whole entry, looked up: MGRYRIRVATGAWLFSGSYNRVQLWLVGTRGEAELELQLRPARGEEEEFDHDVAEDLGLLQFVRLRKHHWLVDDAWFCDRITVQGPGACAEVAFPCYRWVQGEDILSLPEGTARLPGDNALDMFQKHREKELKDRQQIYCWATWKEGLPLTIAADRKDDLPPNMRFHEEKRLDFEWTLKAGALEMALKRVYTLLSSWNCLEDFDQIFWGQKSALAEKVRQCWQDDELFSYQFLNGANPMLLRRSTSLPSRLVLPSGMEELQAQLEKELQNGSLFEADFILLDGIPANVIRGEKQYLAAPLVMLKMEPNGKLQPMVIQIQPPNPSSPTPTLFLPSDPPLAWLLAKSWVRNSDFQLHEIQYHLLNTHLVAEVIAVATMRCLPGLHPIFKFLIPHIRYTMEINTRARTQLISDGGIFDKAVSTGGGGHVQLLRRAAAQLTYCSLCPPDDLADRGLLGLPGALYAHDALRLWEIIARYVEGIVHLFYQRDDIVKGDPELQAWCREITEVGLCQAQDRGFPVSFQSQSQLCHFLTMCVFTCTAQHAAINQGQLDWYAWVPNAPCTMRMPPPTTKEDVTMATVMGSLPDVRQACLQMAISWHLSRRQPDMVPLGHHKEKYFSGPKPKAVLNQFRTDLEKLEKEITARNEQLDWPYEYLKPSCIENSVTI

These compounds were tested against Polyunsaturated fatty acid lipoxygenase ALOX12 (Homo sapiens) (UniProt P18054) (assay: Primary qHTS assay for inhibitors of human arachidonate 12S-lipoxygenase (ALOX12): Round 2). Conditions: purified 12hLO, xylenol orange hydroperoxide absorbance; series mostly up to 108 µM.
Procedure, shortened: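 Purified human 12hLO (150 nM final) in 25 mM Hepes, 0.01% Triton X-100, pH 7.0 was preincubated 15 min at room temperature with compound. Then 40 uM arachidonic acid was added, 30 min. Hydroperoxide was read by Fe-XO absorbance ratio 573/405 nm.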
Potency means the concentration at half of the fitted maximal effect.

Compound	Potency
CC(=O)NC(CCS(C)(=O)=O)C(=O)Nc1nccs1 (stereo unspecified)	inconclusive: 31.6 µM [inhibitor, partial curve, poor fit]
COC(=O)c1ccc(Cn2c(C)cc(C)[n+]2C)o1	inactive
Cc1ccc(-n2c(SCC(=O)Nc3ccc4c5c(cccc35)CC4)nc(O)cc2=O)cc1	inconclusive: 39.8 µM [inhibitor, partial curve, poor fit]
O=S(=O)(c1cccc2c(I)cccc12)N1CCCNCC1	inactive
COc1ccc(C2=NOC(COc3ccc([N+](=O)[O-])cc3)C2)cc1 (stereo unspecified)	inconclusive: 100 µM [inhibitor, single point]
CS(=O)(=O)c1ccccc1-c1nnc(NC(=O)c2ccc(S(=O)(=O)N3CCCC3)cc2)o1	inactive
O=C(NNC(=O)c1ccccc1O)c1ccc(Br)cc1	inconclusive: 25.1 µM [inhibitor, partial curve, poor fit]
Cc1cccc2cc(CN(Cc3ccc(F)cc3)C(=O)N3CCOCC3)c3nnnn3c12	inactive
CC(=O)NCc1ccc(-c2csc(-c3ccc(C)cc3)n2)o1	inconclusive: 39.8 µM [inhibitor, partial curve]
Cn1ccc(=Nc2ccc(NC(=O)c3ccc(N=c4ccn(C)c5ccc([N+](=O)[O-])cc45)cc3)cc2)cc1	inconclusive: 50.1 µM [inhibitor, partial curve, poor fit]
O=C1c2cc(S(=O)(=O)NCCO)ccc2-c2ccc(S(=O)(=O)NCCO)cc21	inconclusive: 79.4 µM [inhibitor, single point]
C=CCn1c(SCc2nc3ccccc3o2)nnc1-c1ccccc1	inconclusive: 126 µM [inhibitor, single point]
COCCNc1nc(-c2ccc(OC)cc2C)c2sc(-c3ccccc3)cc2n1	inconclusive: 50.1 µM [inhibitor, partial curve, poor fit]
Cc1cc(C)n2nc(SCC(=O)N(C(C)C)C(C)C)nc2n1	inconclusive: 3.98 µM [inhibitor, full curve, poor fit]
Cc1cc(NC(=O)Nc2ccccc2Cl)no1	inactive
O=C(CN1C(=O)NC2(CCOCC2)C1=O)N1CCN(c2ccc(F)cc2)CC1	inactive
O=C(C[C@@H]1CCNC[C@@H]1Cc1cc(CSc2ccccc2)on1)NCc1ccc(F)cc1	inconclusive: 17.8 µM [inhibitor, full curve, poor fit]
COc1cc(C(=O)OCC(=O)N2CCCCC2C)cc(NC(=O)c2cccs2)c1OC (stereo unspecified)	inactive
CCN(CC)C(=O)COC(=O)c1cc(-c2ccc(OC)cc2)nc2ccccc12	inconclusive: 112 µM [inhibitor, partial curve, poor fit]
COc1ccc(-c2cc(C(F)(F)F)nc(NCc3cccs3)n2)cc1	inactive
CCN1CCN(c2ccc(S(=O)(=O)N3CCCCC3)cc2NC(=O)CC(C)c2ccccc2)CC1 (stereo unspecified)	inconclusive: 3.16 µM [inhibitor, full curve, poor fit]

Laid out differently: entries from further up.

| Compound | Potency |
| --- | --- |
| Cc1cc(C)n2nc(SCC(=O)N(C(C)C)C(C)C)nc2n1 | inconclusive: 3.98 µM [inhibitor, full curve, poor fit] |
| COc1cc(C(=O)OCC(=O)N2CCCCC2C)cc(NC(=O)c2cccs2)c1OC (stereo unspecified) | inactive |

Next part.

Compound	Potency
COCCOc1ccc2c(n1)CCN(C(=O)c1cccc(C)c1)C2	inactive
CSc1nnc(N2C(=O)C(O)=C(C(=O)c3ccco3)C2c2ccc(F)cc2)s1 (stereo unspecified)	inconclusive: 50.1 µM [inhibitor, partial curve, poor fit]
Cc1ccc(OCCNc2cc(N3CCN(CCO)CC3)ccc2[N+](=O)[O-])cc1C	inconclusive: 44.7 µM [inhibitor, partial curve, poor fit]
Cc1cccc(C(=O)N2CCN(c3ncnc4c3cnn4-c3ccccc3)CC2)c1	inactive
OCC1OC(n2ccc3c(NO)ncnc32)C(O)C1O (stereo unspecified)	inactive
CC(NC(=O)/C=C/c1cnc2ccccc2n1)C12CC3CC(CC(C3)C1)C2 (stereo unspecified)	inconclusive: 100 µM [inhibitor, partial curve, poor fit]
C=CCn1c(C)cc(C(=O)CSc2nc3ccccc3c(=O)[nH]2)c1C	inconclusive: 14.1 µM [inhibitor, partial curve, poor fit]
O=C1C(N2CCN(S(=O)(=O)c3cccs3)CC2)CCN1Cc1cccnc1 (stereo unspecified)	inconclusive: 25.1 µM [inhibitor, single point]
COc1ccc(OC)c(CN2CCCn3nc(C)c(-c4cccnc4N4CCOCC4)c32)c1	inactive
COc1cccc(C(C)(O)c2nc(-c3cncnc3)cs2)c1 (stereo unspecified)	inconclusive: 100 µM [inhibitor, single point]
Cc1cc(C)cc(C(=O)Nc2ccc3oc(-c4cccnc4)nc3c2)c1	inconclusive: 44.7 µM [inhibitor, partial curve, poor fit]
CCN1CCn2c3c(c4cc(Cl)ccc42)CCCC31 (stereo unspecified)	inconclusive: 50.1 µM [inhibitor, partial curve, poor fit]
CCN(CC)S(=O)(=O)c1ccc(C(=O)Nc2cc(S(=O)(=O)N3CCOCC3)ccc2N2CCN(C)CC2)cc1	inconclusive: 79.4 µM [inhibitor, partial curve, poor fit]
CC1(C)CCc2cc(-c3ccnc(=S)[nH]3)ccc2O1	inconclusive: 6.31 µM [inhibitor, partial curve, poor fit]
CCCC(=O)Nc1ccc(NC(=S)NC(=O)c2cccs2)cc1	inconclusive: 44.7 µM [inhibitor, partial curve]
Cc1c(C(=O)NCC(c2ccco2)N2CCOCC2)oc2ccccc12 (stereo unspecified)	inconclusive: 14.1 µM [inhibitor, full curve, poor fit]
CCOC(=O)CN1C(=O)N[C@@H](c2cccc(F)c2)C(C(C)=O)=C1C	inconclusive: 126 µM [inhibitor, single point]
O=c1[nH]c2ccc(NS(=O)(=O)c3ccc(F)cc3)cc2s1	inconclusive: 63.1 µM [inhibitor, partial curve, poor fit]
C[C@H](NC(=O)c1nc[nH]c1C(=O)NCCCCCN)C(=O)OC(C)(C)C	inactive
Cc1nc(Nc2nc(-c3ccccc3Cl)cc(=O)[nH]2)nc2c(C)cccc12	inconclusive: 89.1 µM [inhibitor, single point]
